{"source": "paper PMC12040169", "about": "(PLOS Biology, 2025)", "note": "The other results are listed elsewhere or left out."}
{"test_system": "T1, CTL2-GFP (C. trachomatis L2/434/Bu, GFP-expressing)", "T1 construct": "L2/434/Bu, GFP-expressing", "parameters": "species or system HeLa; Intracellular C. trachomatis growth in HeLa cells, bulk GFP fluorescence relative to DMSO", "conditions": "bulk GFP, single well; 28.5 h, 10 µM; inhibitor", "units": {"% of control remaining": "%"}}
{"smiles": "CN1CCN([C@H]2[C@@H]3OC[C@@H](O3)[C@@H](NCc3ccc(CO)o3)[C@@H]2O)CC1", "note": "[CBK288823]", "% of control remaining": 102.188}
{"smiles": "N#Cc1sc(-c2ccc(F)cc2)cc1NC(=O)c1cccc([N+](=O)[O-])c1", "note": "[CBK066845]", "% of control remaining": 91.4713}
{"smiles": "COc1ccc(-c2cncc(NCC3CCOCC3)n2)cc1", "note": "[CBK037285]", "% of control remaining": 79.7676}
{"smiles": "O=C(NCCCn1ccnc1)c1ncoc1-c1ccccc1F", "note": "[CBK283917]", "% of control remaining": 124.028}
{"smiles": "COc1cc(OC)nc(CN2CCOC3(CCN(C(=O)c4ccc5ccccc5c4)CC3)C2)n1", "note": "[CBK161121A]", "% of control remaining": 112.889}
{"smiles": "COc1ccc(CN(CCN2CCOCC2)C(=O)Nc2cccnc2)cc1OC", "note": "[CBK159379]", "% of control remaining": 146.295}
{"smiles": "COCCN(Cc1ccc(OC)cc1)c1c(C)nc2ccc(C(=O)Nc3ccc(NC(C)=O)cc3)cn12", "note": "[CBK146111]", "% of control remaining": 104.096}
{"smiles": "Cc1ccn2cc(-c3ccc4c(c3)CCN4S(C)(=O)=O)nc2c1", "note": "[CBK285221]", "% of control remaining": 124.802}
{"smiles": "CN(c1ccc(C(=O)Nc2ccc(S(=O)(=O)N3CCOCC3)cc2)cc1)S(=O)(=O)c1ccccc1", "note": "[CBK264129]", "% of control remaining": 89.2099}
{"smiles": "Cc1cc(-c2ccc(=O)n(CCNC(=O)C3CC3)n2)c(C)o1", "note": "[CBK284521]", "% of control remaining": 106.724}
{"smiles": "COc1cccc(CNC(=O)Cn2nnc(-c3ccc(CN4CCC(C)CC4)cc3)n2)c1OC", "note": "[CBK144161C]", "% of control remaining": 108.092}
{"smiles": "CCOC(=O)N1CCC(n2c(=O)[nH]c3ccccc32)CC1", "note": "[CBK149867]", "% of control remaining": 131.176}
{"smiles": "Cc1cc(NCc2ccc(C(C)C)cc2)c2ccccc2n1", "note": "[CBK122786]", "% of control remaining": 114.474}
{"smiles": "CC(=O)Nc1ccc(NC(=O)NCC2CCCO2)c(C(F)(F)F)c1", "note": "(centres unmarked) [CBK304150]", "% of control remaining": 106.083}
{"smiles": "CCc1c(SCC(=O)O)nc2ccccc2c1C", "note": "[CBK286928]", "% of control remaining": 132.392}
{"smiles": "O=C(Nc1ccccc1-c1ccccc1)C1CN(S(=O)(=O)c2ccccc2)CCN1S(=O)(=O)c1ccccc1", "note": "(centres unmarked) [CBK265902]", "% of control remaining": 128.157}
{"smiles": "O=C(Cc1ccc2c(c1)CCC2)N1CCCCC1CN1CCOCC1", "note": "(centres unmarked) [CBK282704]", "% of control remaining": 144.838}
{"smiles": "N#CCCN(C(=O)Nc1ccc2[nH]ccc2c1)C1CCCCC1", "note": "[CBK156362]", "% of control remaining": 102.994}
{"smiles": "CC(=O)Nc1ccc(S(=O)(=O)N2CCN(S(=O)(=O)c3ccccc3)CC2)cc1", "note": "[CBK264163]", "% of control remaining": 100}
{"smiles": "O=C1CC2(CCNCC2)Oc2c1ccc1ccccc21", "note": "[CBK282714]", "% of control remaining": 114.295}
{"smiles": "CCc1nc2ccc(C(=O)NCCN(C)C)cn2c1N(CC)CC(=O)N(C)C", "note": "[CBK146762]", "% of control remaining": 128.19}
{"smiles": "O=[N+]([O-])c1ccc(NC(=S)NCCCn2ccnc2)cc1", "note": "[CBK264915]", "% of control remaining": 117.415}
{"smiles": "Cc1ccc(-c2nn(CCC#N)cc2C(=O)N2CCOCC2)cc1C", "note": "[CBK305940]", "% of control remaining": 115.377}
{"smiles": "O=C(CCc1ccc(-c2ccc(F)cc2)o1)Nc1ccc(C(=O)O)cc1", "note": "[CBK300502]", "% of control remaining": 119.316}
{"smiles": "Cc1cccn2c(=O)c(/C=C3\\SC(=S)N(CC4CCCO4)C3=O)c(NCCCn3ccnc3)nc12", "note": "(centres unmarked) [CBK263825]", "% of control remaining": 93.1878}
{"smiles": "O=C(O)CCn1c2ccccc2c2cc(I)ccc21", "note": "[CBK262578]", "% of control remaining": 100}
{"smiles": "CC(=O)N1CCC2(CCCC[C@H]3CNCC[C@@H]3NC(=O)CNC2=O)CC1", "note": "[CBK292167]", "% of control remaining": 113.495}
{"smiles": "O=C(O)c1ccc(NC(=O)c2cnccn2)cc1", "note": "[CBK268110]", "% of control remaining": 140.289}
{"smiles": "Cc1cccc(-c2ccc(CC3(C(=O)NC(C)C)CCN(C(=O)C(C)C)CC3)cc2)c1", "note": "[CBK285756]", "% of control remaining": 115.509}
{"smiles": "COc1ccc(C2CC(c3ccc4ccccc4c3)=NN2C(=O)COc2ccccc2C(=O)O)cc1", "note": "(centres unmarked) [CBK297503]", "% of control remaining": 148.101}
{"smiles": "Cc1ccc(S(=O)(=O)NC(C)(C)C)cc1C(=O)N(C)Cc1cnn(C)c1", "note": "[CBK305433]", "% of control remaining": 108.586}
{"smiles": "Cc1cc(C)n(C(C)C(=O)N2CCC(Nc3cccnc3)CC2)n1", "note": "(centres unmarked) [CBK305917]", "% of control remaining": 80.4279}
{"smiles": "Cc1ccc(-c2noc(CN3CCN(C(c4ccccc4)c4ccccc4)CC3)n2)cc1", "note": "[CBK266425]", "% of control remaining": 162.027}
{"smiles": "O=C(Cn1cccn1)NCC(c1ccccc1Cl)N1CCOCC1", "note": "(centres unmarked) [CBK305593]", "% of control remaining": 133.959}
{"smiles": "CS(=O)(=O)Nc1ccc(N2CCNCC2)c2ccccc12", "note": "[CBK059355C]", "% of control remaining": 50.3953}
{"smiles": "Cc1ccc(C(=O)CSc2nc(O)c3nc[nH]c3n2)cc1", "note": "[CBK300520]", "% of control remaining": 104.953}
{"smiles": "Nc1ncc(-c2cccc3cccnc23)nc1N1CCC[C@@H]1CO", "note": "[CBK063470]", "% of control remaining": 106.824}
{"smiles": "COc1cc(OC)nc(Oc2ccc(C(=O)O)cc2)n1", "note": "[CBK092222]", "% of control remaining": 148.551}
{"smiles": "CC(=O)c1ccc(NC(=O)COn2nnc3ccc([N+](=O)[O-])cc32)cc1", "note": "[CBK266980]", "% of control remaining": 119.99}
{"smiles": "Cc1ccc2nc(SCc3cccc([N+](=O)[O-])c3)nc(C)c2c1", "note": "[CBK264370]", "% of control remaining": 105.587}
{"smiles": "COc1cccc2c1cc(C(=O)NC1CCCN(C)C1)n2C", "note": "(centres unmarked) [CBK283266]", "% of control remaining": 110.039}
{"smiles": "O=C1NC[C@]2(CC[C@@H](C(=O)NC3CC3)CC2)Oc2ccc(Cl)cc21", "note": "[CBK284889]", "% of control remaining": 139.038}
{"smiles": "COc1ccc(-c2cc(C(=O)OCC(=O)c3cccc4ccccc34)c3ccccc3n2)cc1", "note": "[CBK265513]", "% of control remaining": 119.484}
{"smiles": "Cc1ccc2c(c1)c(C)c(C(=O)NCCn1ccc(C)n1)n2C", "note": "[CBK282609]", "% of control remaining": 87.0769}
{"smiles": "CCc1ccc(Oc2c(CC(=O)O)oc3cc(O)c(CC)cc3c2=O)cc1", "note": "[CBK266108]", "% of control remaining": 87.9401}
{"smiles": "Cc1cc(C)n(CC(=O)NCCCc2ccc(Cl)cc2)c(=O)n1", "note": "[CBK281561]", "% of control remaining": 123.847}
{"smiles": "O=C(C1CCCC1)N1C2CCC1CC(O)(c1cccnc1F)C2", "note": "(centres unmarked) [CBK284421]", "% of control remaining": 101.422}
{"smiles": "O=C(CSc1nnc(-c2ccccc2Br)o1)c1ccc(F)cc1", "note": "[CBK068688]", "% of control remaining": 139.321}
{"smiles": "CCN1CCN(c2cc(N3CCN(C(=O)COc4ccccc4F)C(C)C3)c([N+](=O)[O-])cc2F)CC1", "note": "(centres unmarked) [CBK267513]", "% of control remaining": 110.338}
{"smiles": "C=CCOc1nc2c(=O)[nH]c(NC(=O)C(C)C)nc2n1[C@H]1C[C@@H](O)[C@@H](CO)O1", "note": "[CBK201216]", "% of control remaining": 163.171}
{"smiles": "CCNS(=O)(=O)c1ccc2c(c1)N(Cc1ccc(CO)o1)CC2", "note": "[CBK306158]", "% of control remaining": 137.785}
{"smiles": "CSc1nsc(SCC(=O)c2ccc(Oc3ccccc3)cc2)n1", "note": "[CBK269104]", "% of control remaining": 148.077}
{"smiles": "CC1(C)CC(N(Cc2ccccc2)Cc2c[nH]cn2)CC(C)(C)N1", "note": "[CBK283196]", "% of control remaining": 113.385}
{"smiles": "CC(=O)NC1CCN(CC2(c3cccc(F)c3)CCCC2)CC1", "note": "[CBK282590]", "% of control remaining": 116.621}
{"smiles": "CN1C[C@]2(CC[C@@H](C(=O)NC3CC3)CC2)Oc2ccccc2C1=O", "note": "[CBK282610]", "% of control remaining": 101.716}
{"smiles": "OCCN1CCN(c2nnc(-c3ccccc3)cc2-c2ccccc2)CC1", "note": "[CBK270045]", "% of control remaining": 135.359}
{"smiles": "Cc1cc(Br)ccc1-n1sc2ccccc2c1=O", "note": "[CBK116239]", "% of control remaining": 93.279}
{"smiles": "Nc1ncc(-c2cccc(O)c2)nc1-c1ccc(C=O)cc1", "note": "[CBK064088]", "% of control remaining": 81.962}
{"smiles": "Cc1noc(C)c1NC(=O)c1cncn1C", "note": "[CBK200396]", "% of control remaining": 63.4177}
{"smiles": "COc1ccc(C(=O)C2=C(O)C(=O)N(CCCN(C)C)C2c2ccncc2)cc1Cl", "note": "(centres unmarked) [CBK266529]", "% of control remaining": 135.81}
{"smiles": "COc1ccccc1-c1cc([C@H]2CN3CC[C@H]2C[C@@H]3CNC(=O)c2ccco2)nc(C)n1", "note": "[CBK289119]", "% of control remaining": 132.908}
{"smiles": "OC(CN1CCNCC1)Cn1c2ccc(Cl)cc2c2cc(Cl)ccc21", "note": "(centres unmarked) [CBK094277G]", "% of control remaining": 46.7194}
{"smiles": "COc1cc(NC(=O)NCC2CCN(CCOc3c(OC)cccc3OC)CC2)cc(OC)c1", "note": "[CBK051514]", "% of control remaining": 100}
{"smiles": "CCC(=O)Nc1nnc(-c2ccc3c(c2)OCCO3)o1", "note": "[CBK287404]", "% of control remaining": 165.361}
{"smiles": "CS(=O)(=O)c1ccc(-c2ccc(C(=O)NCc3ccccc3)cn2)cc1", "note": "[CBK158885]", "% of control remaining": 111.032}
{"smiles": "COCC(=O)N1CCc2sccc2C1c1ccc(NC(=O)c2ccc(OC)cc2)cc1", "note": "(centres unmarked) [CBK286467]", "% of control remaining": 130.829}
{"smiles": "Cc1cccc(C(=O)Nc2ncn(CC(=O)N3CCCCCC3)n2)n1", "note": "[CBK304954]", "% of control remaining": 120.259}
{"smiles": "CC1(C(F)(F)F)OC(NC2C3CC4CC(C3)CC2C4)=NC1=O", "note": "(centres unmarked) [CBK115312]", "% of control remaining": 83.6817}
{"smiles": "CCN1C(=O)CC(N2CCN(c3cc(-c4ccc(OC)cc4)nc(C)n3)CC2)C1=O", "note": "(centres unmarked) [CBK269744]", "% of control remaining": 102.186}
{"smiles": "Cn1ncc2c(SCc3cc4c(cc3Br)OCCO4)ncnc21", "note": "[CBK297732]", "% of control remaining": 120.199}
{"smiles": "O=C(O)/C=C/c1cn(-c2ccccc2)nc1-c1cccs1", "note": "[CBK263119]", "% of control remaining": 100}
{"smiles": "Cc1cc(-c2cc(=O)n(CCc3ccccc3)nc2-c2ccco2)on1", "note": "[CBK282879]", "% of control remaining": 107.616}
{"smiles": "CN(C(=O)c1cccn1C)C1CCN(c2ncnc3ccccc23)CC1", "note": "[CBK306110]", "% of control remaining": 103.862}
{"smiles": "COc1ccc(CN2CCCN(c3cc(OCC4COc5ccccc5O4)ncn3)CC2)cc1", "note": "(centres unmarked) [CBK083255T]", "% of control remaining": 117.691}
{"smiles": "Cc1cc(N2C(=O)CC(N3CCC(C(=O)N4CCOCC4)CC3)C2=O)no1", "note": "(centres unmarked) [CBK269035]", "% of control remaining": 108.087}
{"smiles": "Fc1ccccc1CSc1nnc(-c2cnccn2)n1Cc1ccco1", "note": "[CBK267556]", "% of control remaining": 140.029}
{"smiles": "Cc1cccc(-c2ncc(C(=O)NCCN3CCOCC3)cc2-c2ccc(O)cc2)c1", "note": "[CBK037435]", "% of control remaining": 154.474}
